Measured data: PubChem BioAssay AID504793 (Drosophila RNAi Screening Center, 2011)
The screen tested about 23,000 reagents; below is a random part of those that have a named target and a result. In the full data, 62 (0.27%) got an active call. 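Calls come from follow-up tests whose scores are not deposited, so confirmed genes may have low counts here; counts are not normalised per plate.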 Raw values vary from plate to plate and are shown uncorrected. Entries without a mark were called inactive. Reagents against one gene are numbered here.

- Test: 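Genes required for cells to halt at G2/M after double-strand DNA breaks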 (primary screen)
- Cells: Drosophila S2R+ cells
- Knock-down reagent: long dsRNA against Drosophila genes, about 0.25 µg dsRNA per well
- Timing: 4 days of dsRNA, then 4 hours of drug before read-out
- Challenge: doxorubicin 0.5 µM for 4 hours to cause double-strand breaks, in cells also given a low, harmless dose of dsRNA against nbs to sensitise the assay
- Measured: 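Per-well count of mitotic cells stained for phospho-histone H3 after doxorubicin exposure, used as mitotic index; counts are raw and not normalised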
- Direction: mitotic cells: higher = more cells in mitosis, weaker G2 arrest
- Active means: 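a call needs confirmation in secondary tests, with other dsRNAs and a check of mitotic timing without damage, not just a high primary count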
- Calls: active = confirmed in follow-up tests; inactive = not confirmed

CCDC53 (Coiled-coil domain containing 53)
- mitotic cells, replicate 1: 5

Arl2 (ADP ribosylation factor-like 2)
- mitotic cells, replicate 1: 4

CG30281 #1
- mitotic cells, replicate 1: 4

CG30281 #2
- mitotic cells, replicate 1: 6

Tpst (Tyrosylprotein sulfotransferase) #1
- mitotic cells, replicate 1: 14

Tpst (Tyrosylprotein sulfotransferase) #2
- mitotic cells, replicate 1: 12

Tpst (Tyrosylprotein sulfotransferase) #3
- mitotic cells, replicate 1: 10

Tpst (Tyrosylprotein sulfotransferase) #4
- mitotic cells, replicate 1: 4

Tpst (Tyrosylprotein sulfotransferase) #5
- mitotic cells, replicate 1: 10

Tpst (Tyrosylprotein sulfotransferase) #6
- mitotic cells, replicate 1: 10

Vha44 (Vacuolar H[+] ATPase 44kD subunit) #1
- mitotic cells, replicate 1: 2

Vha44 (Vacuolar H[+] ATPase 44kD subunit) #2
- mitotic cells, replicate 1: 8

Vha44 (Vacuolar H[+] ATPase 44kD subunit) #3
- mitotic cells, replicate 1: 7

Sirt6 (Sirtuin 6) #1
- mitotic cells, replicate 1: 2

Sirt6 (Sirtuin 6) #2
- mitotic cells, replicate 1: 10

CG1764
- mitotic cells, replicate 1: 3

Slob (Slowpoke binding protein)
- mitotic cells, replicate 1: 3

CG30460 #1
- mitotic cells, replicate 1: 2

CG30460 #2
- mitotic cells, replicate 1: 14

CG8952
- mitotic cells, replicate 1: 3

rept (reptin) #1
- mitotic cells, replicate 1: 42 (active)

rept (reptin) #2
- mitotic cells, replicate 1: 19

CG7369
- mitotic cells, replicate 1: 6

CG1894
- mitotic cells, replicate 1: 9

rgn (regeneration)
- mitotic cells, replicate 1: 8

lqf (liquid facets) #1
- mitotic cells, replicate 1: 7

lqf (liquid facets) #2
- mitotic cells, replicate 1: 5

cas (castor) #1
- mitotic cells, replicate 1: 1

cas (castor) #2
- mitotic cells, replicate 1: 5

acj6 (abnormal chemosensory jump 6) #1
- mitotic cells, replicate 1: 7

acj6 (abnormal chemosensory jump 6) #2
- mitotic cells, replicate 1: 2

I-t (inhibitor-t)
- mitotic cells, replicate 1: 3

Nup93-2 (Nucleoporin 93kD-2)
- mitotic cells, replicate 1: 3

Herp (Homocysteine-induced endoplasmic reticulum protein) #1
- mitotic cells, replicate 1: 7

Herp (Homocysteine-induced endoplasmic reticulum protein) #2
- mitotic cells, replicate 1: 8

Rab19 #1
- mitotic cells, replicate 1: 4

Rab19 #2
- mitotic cells, replicate 1: 3

Vha16-2 (Vacuolar H[+] ATPase 16kD subunit 2) #1
- mitotic cells, replicate 1: 3

Vha16-2 (Vacuolar H[+] ATPase 16kD subunit 2) #2
- mitotic cells, replicate 1: 9

Tep4 (Thioester-containing protein 4)
- mitotic cells, replicate 1: 5

BaraC (Baramicin C)
- mitotic cells, replicate 1: 5

CG12426
- mitotic cells, replicate 1: 14

CG12992
- mitotic cells, replicate 1: 13
